PubChem BioAssay AID1053208, Peter MacCallum Cancer Centre – 2014

Purpose: 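Genes whose silencing cuts survival of bone tumour cells only with doxorubicin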 (primary screen)
Cell system: mouse osteosarcoma cells, early-passage culture from an engineered mouse model of fibroblastic bone tumour
Reagents: siRNA pool against mouse genes, 40 nM
Timing: about 120 h (48 h before drug, then 72 h with drug)
Treatment: doxorubicin 100 nM for 72 h, roughly 30-40% inhibitory dose
Measurement: 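Luminescent ATP signal taken as viability with or without 100 nM doxorubicin for 72 h; mean of two wells set against non-targeting siRNA and turned into robust z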
Direction: viability z-score with doxorubicin and doxorubicin viability vs non-targeting: higher = more viable cells under doxorubicin; viability z-score without drug: higher = more viable cells with knock-down alone; z-score of drug to no-drug ratio: higher = less drug sensitisation by knock-down
Active means: 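Called active if knock-down leaves viability unchanged without drug (z within -2 to 2) but lowers it with doxorubicin (z at or under -2)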
Shown is an unselected part of about 17,000 reagents tested. In the full data, 788 (4.7%) got an active call. 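Calls rest on z-score classes alone; an extra cut-off of viability at most 70% of control was not applied to them.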 Reagent sequences are not shown.

| gene | combined z-score class | viability z-score with doxorubicin | viability z-score without drug | z-score of drug to no-drug ratio | doxorubicin viability vs non-targeting | call |
| --- | --- | --- | --- | --- | --- | --- |
| Rb1 (GeneID 19645) | no change with or without drug | 1.46 | 0.84 | 1.01 | 1.07 | inactive |
| Ndn (GeneID 17984) | no change with or without drug | 1.01 | -0.51 | 1.57 | 1.03 | inactive |
| Smgc (GeneID 223809) | no change with or without drug | -0.9 | 0.84 | -1.35 | 0.86 | inactive |
| Zfyve21 (GeneID 68520) | no change with or without drug | -0.9 | -0.51 | -0.56 | 0.86 | inactive |
| Or5p4 (GeneID 258927) | no change with or without drug | 0.9 | 0.84 | 0.45 | 1.02 | inactive |
| Snapc5 (GeneID 330959) | high cell count with and without drug | 2.02 | 2.36 | 0.56 | 1.12 | inactive |
| Fkbp1a (GeneID 14225) | no change with or without drug | 0.56 | -1.18 | 1.57 | 0.99 | inactive |
| Akr1b10 (GeneID 67861) | no change with or without drug | 1.12 | 0.84 | 0.67 | 1.04 | inactive |
| B3gnt9 (GeneID 97440) | no change with or without drug | -0.79 | -0.17 | -0.56 | 0.87 | inactive |
| Nin (GeneID 18080) | no change with or without drug | 0.79 | -0.17 | 1.01 | 1.01 | inactive |
| Zfp592 (GeneID 233410) | no change with or without drug | 0.11 | -0.51 | 0.56 | 0.95 | inactive |
| Cryaa (GeneID 12954) | no change with or without drug | -0.9 | 0 | -0.79 | 0.86 | inactive |
| Pgcka1 (GeneID 76261) | no change with or without drug | 1.8 | -0.34 | 2.25 | 1.1 | inactive |
| Stap1 (GeneID 56792) | no change with or without drug | -0.67 | 0.17 | -0.67 | 0.88 | inactive |
| Erbb3 (GeneID 13867) | no change with or without drug | 0.9 | -1.18 | 2.02 | 1.02 | inactive |
| Flywch1 (GeneID 224613) | no change with or without drug | -0.45 | 0.67 | -0.79 | 0.9 | inactive |
| Pla1a (GeneID 85031) | no change with or without drug | 0.56 | 0.34 | 0.45 | 0.99 | inactive |
| Nfs1 (GeneID 18041) | no change with or without drug | -0.11 | 0.17 | -0.11 | 0.93 | inactive |
| Glra2 (GeneID 237213) | no change with or without drug | -0.11 | -1.52 | 1.12 | 0.93 | inactive |
| Asf1b (GeneID 66929) | no change with or without drug | -1.35 | 0.51 | -1.57 | 0.82 | inactive |
| Foxi2 (GeneID 270004) | no change with or without drug | 0.45 | 0.51 | 0.22 | 0.98 | inactive |
| Tgtp1 (GeneID 21822) | high cell count without drug only | 0.9 | 2.19 | -0.45 | 1.02 | inactive |
| Slc66a1 (GeneID 212555) | no change with or without drug | 0.34 | -0.17 | 0.56 | 0.97 | inactive |
| Dohh (GeneID 102115) | low cell count with doxorubicin only | -2.25 | -1.85 | -1.12 | 0.74 | active |
| Mlc1 (GeneID 170790) | no change with or without drug | 0.56 | 0.34 | 0.45 | 0.99 | inactive |
| St3gal6 (GeneID 54613) | no change with or without drug | -0.9 | 0.17 | -0.9 | 0.86 | inactive |
| Serpinb9 (GeneID 20723) | no change with or without drug | -0.22 | 0.51 | -0.45 | 0.92 | inactive |
| Kif21b (GeneID 16565) | no change with or without drug | -0.45 | -0.51 | 0 | 0.9 | inactive |
| Klhl12 (GeneID 240756) | no change with or without drug | -0.34 | 0.34 | -0.45 | 0.91 | inactive |
| Or10j2 (GeneID 258645) | low cell count without drug only | 0.34 | -2.19 | 2.25 | 0.97 | inactive |
| Pde3a (GeneID 54611) | no change with or without drug | 1.24 | -1.01 | 2.25 | 1.05 | inactive |
| Grep1 (GeneID 320309) | no change with or without drug | 1.57 | 1.18 | 0.9 | 1.08 | inactive |
| Acaa1a (GeneID 113868) | no change with or without drug | 1.46 | 1.18 | 0.79 | 1.07 | inactive |

Targets listed so far whose target name begins with K or k (2):
| gene | combined z-score class | viability z-score with doxorubicin | viability z-score without drug | z-score of drug to no-drug ratio | doxorubicin viability vs non-targeting | call |
| --- | --- | --- | --- | --- | --- | --- |
| Kif21b (GeneID 16565) | no change with or without drug | -0.45 | -0.51 | 0 | 0.9 | inactive |
| Klhl12 (GeneID 240756) | no change with or without drug | -0.34 | 0.34 | -0.45 | 0.91 | inactive |

More entries follow.
| gene | combined z-score class | viability z-score with doxorubicin | viability z-score without drug | z-score of drug to no-drug ratio | doxorubicin viability vs non-targeting | call |
| --- | --- | --- | --- | --- | --- | --- |
| Gpc1 (GeneID 14733) | no change with or without drug | 0.34 | 0.17 | 0.34 | 0.97 | inactive |
| Higd1a (GeneID 56295) | no change with or without drug | 0.79 | 0.84 | 0.34 | 1.01 | inactive |
| Snx29 (GeneID 74478) | no change with or without drug | -0.45 | -0.17 | -0.22 | 0.9 | inactive |
| Plpp3 (GeneID 67916) | no change with or without drug | 0.22 | 0.17 | 0.22 | 0.96 | inactive |
| Phldb2 (GeneID 208177) | low cell count with doxorubicin only | -5.06 | -0.17 | -5.17 | 0.49 | active |
| Ndufa9 (GeneID 66108) | no change with or without drug | 0.22 | -1.85 | 1.8 | 0.96 | inactive |
| Etv3 (GeneID 27049) | no change with or without drug | -0.9 | 0.17 | -0.9 | 0.86 | inactive |
| Bmp8a (GeneID 12163) | no change with or without drug | 0.11 | -1.01 | 1.01 | 0.95 | inactive |
| Or52r1c (GeneID 259056) | no change with or without drug | -0.22 | -0.84 | 0.45 | 0.92 | inactive |
| Fxyd4 (GeneID 108017) | no change with or without drug | 0 | 0.17 | 0 | 0.94 | inactive |
| Pramel32 (GeneID 381590) | no change with or without drug | 1.12 | 1.35 | 0.34 | 1.04 | inactive |
| Prpf39 (GeneID 328110) | no change with or without drug | 0.67 | -0.84 | 1.46 | 1 | inactive |
| Ppwd1 (GeneID 238831) | no change with or without drug | 0.79 | -0.34 | 1.24 | 1.01 | inactive |
| Mvk (GeneID 17855) | no change with or without drug | 1.12 | 0.67 | 0.79 | 1.04 | inactive |
| Vangl2 (GeneID 93840) | no change with or without drug | -0.22 | -1.01 | 0.56 | 0.92 | inactive |
| Znrf4 (GeneID 20834) | no change with or without drug | 0.45 | -1.52 | 1.8 | 0.98 | inactive |
| Ttc39c (GeneID 72747) | no change with or without drug | 0.67 | -0.17 | 0.9 | 1 | inactive |
